Laboratory results from the supplement of paper PMC9233669.
Variants at the floor of the assay are shown more often than the library holds them.

Experiments:
biotinyl-Trp-oxazolone = assay: self-aminoacylation, catalytic enhancement (BWO) (fold over background); higher = more active; k-Seq, kA / k0A0; sequences stand for … in GGGAAUGGAUCCACAUCUACGAAUUC…UUCACUGCAGACUUGACGAAGCUG
Summary of the method: (§1)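 Catalytic enhancement equals the median kA over the uncatalyzed rate, the latter read from the low-activity peak of a bimodal Gaussian fit. Values of kA came from fitting each sequence's fraction reacted to a pseudo-first-order model, with 1000 bootstraps. Reacted RNA was captured with streptavidin and quantified by triplicate qPCR and Illumina sequencing after 90 minutes at room temperature with 2–1250 μM biotinyl-aminoacyl-oxazolone and 0.43 μM mutagenized RNA pools bearing a 21-nt variable region.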

biotinyl-Leu-oxazolone = assay: self-aminoacylation, catalytic enhancement (BLO) (fold over background); higher = more active; k-Seq, kA / k0A0; sequences stand for … in GGGAAUGGAUCCACAUCUACGAAUUC…UUCACUGCAGACUUGACGAAGCUG
Summary of the method: as §1

biotinyl-Val-oxazolone = assay: self-aminoacylation, catalytic enhancement (BVO) (fold over background); higher = more active; k-Seq, kA / k0A0; sequences stand for … in GGGAAUGGAUCCACAUCUACGAAUUC…UUCACUGCAGACUUGACGAAGCUG
Summary of the method: as §1

biotinyl-Ile-oxazolone = assay: self-aminoacylation, catalytic enhancement (BIO) (fold over background); higher = more active; k-Seq, kA / k0A0; sequences stand for … in GGGAAUGGAUCCACAUCUACGAAUUC…UUCACUGCAGACUUGACGAAGCUG
Summary of the method: as §1

biotinyl-Met-oxazolone = assay: self-aminoacylation, catalytic enhancement (BMO) (fold over background); higher = more active; k-Seq, kA / k0A0; sequences stand for … in GGGAAUGGAUCCACAUCUACGAAUUC…UUCACUGCAGACUUGACGAAGCUG
Summary of the method: as §1

biotinyl-Phe-oxazolone = assay: self-aminoacylation, catalytic enhancement (BFO) (fold over background); higher = more active; k-Seq, kA / k0A0; sequences stand for … in GGGAAUGGAUCCACAUCUACGAAUUC…UUCACUGCAGACUUGACGAAGCUG
Summary of the method: as §1

Row | Sequence | self-aminoacylation (biotinyl-Trp-oxazolone) | self-aminoacylation (biotinyl-Leu-oxazolone) | self-aminoacylation (biotinyl-Val-oxazolone) | self-aminoacylation (biotinyl-Ile-oxazolone) | self-aminoacylation (biotinyl-Met-oxazolone) | self-aminoacylation (biotinyl-Phe-oxazolone)
1 | CCACACUUCAAGUAAUCGAUC [Fam1B.1 aminoacylation ribozyme variant] | 0.837 | 0.444 | 0.622 | 0.547 | 0.464 | 1.21
2 | CCACACUUCAAGUAAUCGGUA [Fam1B.1 aminoacylation ribozyme variant] | 0.708 | 1.17 | 0.929 | 1.01 | 1.09 | 0.884
3 | CCACACUUCAAUCAUUCGGUC [Fam1B.1 aminoacylation ribozyme variant] | 0.733 | 0.893 | 1.2 | 1.01 | 1.14 | 0.919
4 | CCACACUUCACCCAAUCGGUC [Fam1B.1 aminoacylation ribozyme variant] | 0.548 | 0.888 | 1.14 | 0.951 | 0.946 | 0.803
5 | CCACACUUCACGCAAUCCGUC [Fam1B.1 aminoacylation ribozyme variant] | 1.44 | 0.948 | 1.33 | 1.19 | 1.1 | 0.586
6 | CCACACUUCACGCACUCGGUC [Fam1B.1 aminoacylation ribozyme variant] | 0.82 | 1.43 | 1.43 | 1.22 | 1.27 | 0.401
7 | CCACACUUCAGGAAAUCGGUC [Fam1B.1 aminoacylation ribozyme variant] | 1.09 | 1.49 | 1.13 | 1.4 | 1.22 | 1.28
8 | CCACACUUCCAGCAAUUGGUC [Fam1B.1 aminoacylation ribozyme variant] | 0.881 | 0.632 | 0.958 | 0.943 | 0.596 | 0.778
9 | CCACACUUCGAGCAAACGGUC [Fam1B.1 aminoacylation ribozyme variant] | 0.57 | 0.632 | 0.655 | 0.678 | 0.663 | 0.648
10 | CCACACUUCGAGCAACCGGUC [Fam1B.1 aminoacylation ribozyme variant] | 1.26 | 1.55 | 1.33 | 1.15 | 0.919 | 0.552
11 | CCACACUUCGAGCAAUCGGUC [Fam1B.1 aminoacylation ribozyme variant] | 1.05 | 0.92 | 1.17 | 0.932 | 0.883 | 1.41
12 | CCACACUUCGAGCAAUCGGUU [Fam1B.1 aminoacylation ribozyme variant] | 1.65 | 1.1 | 1.63 | 1.41 | 1.83 | 0.768
13 | CCACACUUCGAGCAAUCUGUC [Fam1B.1 aminoacylation ribozyme variant] | 0.388 | 0.303 | 0.614 | 0.413 | 0.486 | 0.369
14 | CCACACUUCUAACAAUCGGUC [Fam1B.1 aminoacylation ribozyme variant] | 0.618 | 0.69 | 0.798 | 0.797 | 0.619 | 0.614
15 | CCACACUUCUAGCAAUCCGUC [Fam1B.1 aminoacylation ribozyme variant] | 0.642 | 0.746 | 1.03 | 0.93 | 0.695 | 0.71
16 | CCACACUUCUAGCAAUUGGUC [Fam1B.1 aminoacylation ribozyme variant] | 0.401 | 0.636 | 0.687 | 0.611 | 0.638 | 0.539
17 | CCACACUUGAAGAAAUCGGUC [Fam1B.1 aminoacylation ribozyme variant] | 1.7 | 1.24 | 1.24 | 1.03 | 1.17 | 0.61
18 | CCACACUUUAAGCAAGCGGUC [Fam1B.1 aminoacylation ribozyme variant] | 0.593 | 0.719 | 0.946 | 0.958 | 0.735 | 0.848
19 | CCACACUUUAAGCAAUCGGUU [Fam1B.1 aminoacylation ribozyme variant] | 1.82 | 0.792 | 1.04 | 1.06 | 1.06 | 1.04
20 | CCACACUUUAUGCAAUCGGUC [Fam1B.1 aminoacylation ribozyme variant] | 0.554 | 0.637 | 0.79 | 0.758 | 0.559 | 0.887
21 | CCACAGUUCAAGCAAACGGUC [Fam1B.1 aminoacylation ribozyme variant] | 0.765 | 0.961 | 0.859 | 0.798 | 0.757 | 0.991
22 | CCACAGUUCAAGCAAUCGGUU [Fam1B.1 aminoacylation ribozyme variant] | 1.87 | 1.61 | 1.82 | 1.7 | 1.52 | 1.25
23 | CCACAGUUCAAUCAAUCGGUC [Fam1B.1 aminoacylation ribozyme variant] | 2.08 | 0.881 | 0.96 | 0.806 | 0.905 | 2.95
24 | CCACAUUUCAAGCAAUAGGUC [Fam1B.1 aminoacylation ribozyme variant] | 0.705 | 0.865 | 1.15 | 1.06 | 0.761 | 1.55
25 | CCACAUUUCAAGCAAUCCGUC [Fam1B.1 aminoacylation ribozyme variant] | 0.987 | 1.06 | 1.39 | 1.4 | 1.22 | 1.25
26 | CCACAUUUCCAGCAAUCGGUC [Fam1B.1 aminoacylation ribozyme variant] | 1.23 | 2.15 | 2.04 | 2.12 | 1.64 | 1.26

Row | Sequence | self-aminoacylation (biotinyl-Trp-oxazolone) | self-aminoacylation (biotinyl-Leu-oxazolone) | self-aminoacylation (biotinyl-Val-oxazolone) | self-aminoacylation (biotinyl-Ile-oxazolone) | self-aminoacylation (biotinyl-Met-oxazolone) | self-aminoacylation (biotinyl-Phe-oxazolone)
27 | CCACCCUUCAAGCAACCGGUC [Fam1B.1 aminoacylation ribozyme variant] | 1.86 | 1.34 | 1.65 | 1.11 | 0.788 | 0.914
28 | CCACCCUUCAAGCAAUCCGUC [Fam1B.1 aminoacylation ribozyme variant] | 0.907 | 0.983 | 1.53 | 1.18 | 0.893 | 0.978
29 | CCACCCUUCAAGCAAUCGAUC [Fam1B.1 aminoacylation ribozyme variant] | 0.612 | 0.535 | 0.796 | 0.557 | 0.499 | 1.06
30 | CCACCCUUCAAGCAAUCUGUC [Fam1B.1 aminoacylation ribozyme variant] | 0.452 | 0.408 | 0.579 | 0.429 | 0.397 | 0.649
31 | CCACCCUUCACGCAAUCGGUC [Fam1B.1 aminoacylation ribozyme variant] | 1.75 | 1.2 | 1.81 | 1.78 | 1.4 | 1.41
32 | CCACUCUACAAGCAAUCGGUC [Fam1B.1 aminoacylation ribozyme variant] | 0.709 | 0.957 | 1.1 | 1.05 | 0.822 | 0.779
33 | CCACUCUUCAAGCAAUCGCUC [Fam1B.1 aminoacylation ribozyme variant] | 1.08 | 1.68 | 1.77 | 1.41 | 1.69 | 0.837
34 | CCACUCUUCAAGCAGUCGGUC [Fam1B.1 aminoacylation ribozyme variant] | 1.28 | 1.24 | 1.1 | 1.04 | 1.03 | 1.07
35 | CCACUUCAAACAAUAGGUCUG [Fam1A.1 aminoacylation ribozyme variant] | 0.52 | 0.839 | 0.77 | 0.822 | 0.657 | 0.86
36 | CCACUUCAUACAAUCGGUCUG [Fam1A.1 aminoacylation ribozyme variant] | 0.816 | 0.847 | 0.995 | 0.904 | 0.77 | 0.91
37 | CCAGACUGCAAGCAAUCGGUC [Fam1B.1 aminoacylation ribozyme variant] | 1.07 | 1.48 | 1.38 | 1.64 | 1.7 | 1.79
38 | CCAGACUUCAAGCAAUAGGUC [Fam1B.1 aminoacylation ribozyme variant] | 0.495 | 0.521 | 0.751 | 0.758 | 0.611 | 1.13
39 | CCAGACUUCAUGCAAUCGGUC [Fam1B.1 aminoacylation ribozyme variant] | 0.768 | 1.17 | 1.14 | 1.11 | 0.822 | 0.993
40 | CCGCACAUCAAGCAAUCGGUC [Fam1B.1 aminoacylation ribozyme variant] | 1.79 | 0.872 | 1.43 | 1.1 | 0.839 | 1.76
41 | CCGCACUGCAAGCAAUCGGUC [Fam1B.1 aminoacylation ribozyme variant] | 1.42 | 1.17 | 1.81 | 1.52 | 1.21 | 1
42 | CCGCACUUCAAGAAAUCGGUC [Fam1B.1 aminoacylation ribozyme variant] | 10.3 | 1.59 | 1.41 | 1.18 | 1.14 | 12.2
43 | CCGCACUUCAAGCAAUAGGUC [Fam1B.1 aminoacylation ribozyme variant] | 0.607 | 0.548 | 0.581 | 0.559 | 0.598 | 0.892
44 | CCGCACUUCACGCAAUCGGUC [Fam1B.1 aminoacylation ribozyme variant] | 1.85 | 2.34 | 2.1 | 1.36 | 1.54 | 1.66
45 | CCUCACUUAAAGCAAUCGGUC [Fam1B.1 aminoacylation ribozyme variant] | 0.754 | 0.654 | 0.752 | 0.813 | 0.697 | 1.27
46 | CGACUUCCAACAAUCGGUCUG [Fam1A.1 aminoacylation ribozyme variant] | 1.09 | 1.25 | 1.19 | 1.2 | 0.998 | 1.83
47 | CUAAUUCAAACAAUCGAUCUG [Fam1A.1 aminoacylation ribozyme variant] | 0.361 | 0.544 | 0.561 | 0.604 | 0.43 | 0.72
48 | CUACACCAAACAAUCGGUCUG [Fam1A.1 aminoacylation ribozyme variant] | 0.724 | 0.87 | 0.919 | 0.927 | 0.716 | 1.48
49 | CUACACUACAAGCAAUCGGUC [Fam1B.1 aminoacylation ribozyme variant] | 0.686 | 0.616 | 0.738 | 0.7 | 0.547 | 1.22
50 | CUACACUUCAAGCAAUCAGUC [Fam1B.1 aminoacylation ribozyme variant] | 6.32 | 0.754 | 0.886 | 0.668 | 0.718 | 21
51 | CUACACUUCAAGCAAUCCGUC [Fam1B.1 aminoacylation ribozyme variant] | 0.771 | 0.763 | 0.95 | 0.976 | 0.825 | 1.16
